At least one peptide structure holds a part that was inferred or is arguable (an end, a ring closure or a residue). Starred links: 1 amine or outer side, 2 acyl side, 3 side chain; linkers in the order of their positions; H or OH if unused. Non-standard residues stand in square brackets, D forms with d. Residues, ends and D or L forms follow the SMILES beside them. Groups on a side chain read outwards from the residue. *: point of attachment. X2 = COc1ccc(CN(CC(=O)N(CCCOC(C)C)CC(=O)*)C(=O)CCC(=O)c2cccs2)cc1; Gly(N-(CH2)3N-pyrrolidone) = O=C(O)CNCCCN1CCCC1=O; Phenoxyacetyl(4-Cl,2-Me) = Cc1cc(Cl)ccc1OCC(=O)*; X5 = Cc1cc(Cl)ccc1OCC(=O)N(CC(=O)*)C(C)C(C)C; N(4-MeOBn)Gly = COc1ccc(CNCC(=O)O)cc1; N((CH2)3OiPr)Gly = CC(C)OCCCNCC(=O)O; Palmitoyl = CCCCCCCCCCCCCCCC(=O)*; X3 = CC(C)C(C)N(CC(=O)[*:2])[*:1]; X4 = O=C(CN(c1cncs1)[*:1])[*:2]; Gly(N-cHex) = O=C(O)CNC1CCCCC1; X1 = O=C(CCC(=O)*)c1cccs1; Nlys = NCCCCNCC(=O)O; Nme = COCCNCC(=O)O
Experiments:
[1] = tested on: H441 cells; test: Colony formation assay; assay type: cell-based; details: 9 D incubation, concentration gradient
[2] = tested on: H2122 cells; test: MTS cell viability assay; assay type: cell-based; details: H2122, lung, cancer, KRAS G12C (HOMO), amplification no; PKR1-C16 treatment
[3] = tested on: HBEC3-KT cells; test: MTS cell viability assay; assay type: cell-based; details: lung, non-cancer, KRAS WT, PKR1-C16 treatment
[4] = tested on: H1395 cells; test: MTS cell viability assay; assay type: cell-based; details: H1395, lung, cancer, KRAS WT; PKR1-C16 treatment
[5] = tested on: H441 cells; test: Confocal microscopy; assay type: cell-based; details: AF647 label
[6] = tested on: H441, H358, and H1993 cells; test: MTS assay of fatty acid conjugated PKR1, three cancer cell lines; assay type: cell-based; details: H441 and H358 vs H1993 (WT KRAS)
[7] = tested on: non-cancer cells; test: MTS assay, non-cancer cells vs KRAS mutant cancer cell lines; assay type: cell-based
[8] = tested on: H358 cells; test: MTS cell viability assay; assay type: cell-based; details: H358, lung, cancer, KRAS G12C (HETERO), amplification yes; PKR1-C16 treatment
[9] = tested on: H441 cells; test: MTS cell viability assay; assay type: cell-based; details: H441, lung, cancer, KRAS G12V (HETERO), amplification yes; PKR1-C16 treatment
Description: Three cancer cell lines (H441, H358, and H1993) harboring KRAS G12V, KRAS G12C, and WT KRAS, respectively, were subjected to treatment with the fatty acid conjugated-PKR1. […] FIGS. 6A-6C are graphical representations of the effects of the fatty acid conjugated PKR1 derivatives on cell survival and proliferation of (A) H441, (B) H358, and (C) H1993 cell lines. FIG. 6D presents the IC50 values of fatty acid conjugated PKR1 derivatives in H441, H1993, and H358 cell lines. […] As KRAS is predominant in the membrane consisting of unsaturated fatty acids, conjugating unsaturated fatty acids to PKR1 can facilitate its anchoring onto the membrane, thereby improving efficacy.
To examine the capacity of PKR1 derivatives as broad-spectrum KRAS inhibitors, MTS assays were conducted in various types of cell lines representing different cancer types, KRAS mutations, and KRAS gene zygosity (Table 1). IC50 values for each cell line were obtained from the MTS assay with PKR1-C16 treatment.

[10] = tested on: KRAS mutant cell line; test: MTS assay, KRAS mutant cell lines (summary); assay type: cell-based
[11] = tested on: H1155 cells; test: MTS cell viability assay; assay type: cell-based; details: H1155, lung, cancer, KRAS Q61H (HOMO); PKR1-C16 treatment
[12] = tested on: H441 cells; test: Wound scratch assay (cell migration); assay type: cell-based; details: 2 D incubation, concentration gradient
[13] = tested on: H441 cells; test: Cell viability, single and combination treatment with MEK/ERK inhibitors; assay type: cell-based
Description: Provided herein are pan-KRAS inhibitors that can enhance the sensitivity of heterozygous KRAS mutant cells to KRAS downstream inhibitors, thereby overcoming limitations in their use for cancer therapy. FIG. 11A is an illustration presenting that heterozygous KRAS mutant cells are resistant to the inhibition of KRAS downstream signaling while homozygous KRAS mutant cells are sensitive to such inhibition, therefore blocking wild type KRAS potentially re-sensitizes the heterozygous KRAS mutant cells to the inhibition of KRAS downstream signaling. Cell viability of H441 cells harboring heterozygous KRAS G12V were assessed in combination treatment with PKR1-C16. FIG. 11B is a graphical representation presenting the cell viability of H441 harboring heterozygous KRAS G12V with co-treatments of Trametinib (upper panel) and Ulixertinib with PKR1-C16 (lower panel). […] Concentration gradients of Trametinib and Ulixertinib were co-treated with 1, 3, 5, and 7 μM of PKR1-C16, respectively. […] Blocking WT KRAS enables the re-sensitization of heterozygous KRAS mutant cells to the inhibitors of KRAS downstream signaling.

[14] = tested on: H441 cells; test: Timeline MTS assay; assay type: cell-based
[15] = tested on: H1693 cells; test: MTS cell viability assay; assay type: cell-based; details: H1693, lung, cancer, KRAS WT; PKR1-C16 treatment
[16] = tested on: H1299 cells; test: MTS cell viability assay; assay type: cell-based; details: H1299, lung, cancer, KRAS WT; PKR1-C16 treatment
[17] = tested on: H1993 cells; test: Timeline MTS assay; assay type: cell-based
[18] = tested on: H1993 cells; test: MTS cell viability assay; assay type: cell-based; details: H1993, lung, cancer, KRAS WT; PKR1-C16 treatment
[19] = molecular target: T1, KRAS G12V (Homo sapiens, UniProt P01116, G12V); test: On-bead high throughput screening with streptavidin Qdots 655; assay type: binding; details: biotinylated KRAS G12V
T1 construct: His tag (inferred from the nickel-coated plates)

## CCCCCCCCCCCCCCCC(=O)NCCCC[C@H](NC(=O)[C@H](C)NC(=O)CN(CCOC)C(=O)CN(CCCCN)C(=O)CN(CCCCN)C(=O)CN(C(=O)CN(CCCOC(C)C)C(=O)[C@H](CCCCNC(=O)CN(CCCOC(C)C)C(=O)CN(Cc1ccc(OC)cc1)C(=O)CCC(=O)c1cccs1)NC(=O)CN(CCCOC(C)C)C(=O)CN(Cc1ccc(OC)cc1)C(=O)CCC(=O)c1cccs1)C1CCCCC1)C(N)=O [PKR1-C16] (X1-[N(4-MeOBn)Gly][N((CH2)3OiPr)Gly]K(X2)[N((CH2)3OiPr)Gly][Gly(N-cHex)][Nlys][Nlys][Nme]AK(Palmitoyl)-NH2)
[1]
  colony formation: dose-dependent inhibition of colony formation
[2]
  IC50: 6.1 µM
[3]
  IC50: 40.3 µM
[4]
  IC50: 7.6 µM
[5]
  intracellular localization: intracellular localization of PKR1-C16 within the cytoplasm
[6]
  improvement of activities by cell line: significant improvement of activities in H441 and H358 more than in H1993
[7]
  decrease of activity in non-cancer cells (less potent than in KRAS mutant cancer cell lines): around 10 times
[8]
  IC50: 3.7 µM
[9]
  IC50: 3.7 µM
[10]; KRAS mutant cell line, summary of Table 1
  IC50: ~5 µM
[10]; KRAS mutant vs WT KRAS cancer cells or non-cancer cells
  inhibition in KRAS mutant vs WT KRAS cells: significantly inhibited KRAS mutant cell lines more effectively than WT KRAS cell lines
[11]
  IC50: 4.6 µM
[12]
  concentration resulting in inhibition of cell migration: above 300 nM
[13]; co-treatment of Trametinib or Ulixertinib with 1, 3, 5, and 7 μM PKR1-C16
  cell viability, co-treatment: dose responsive inhibition of cell viability
[13]; co-treatment with Trametinib or Ulixertinib
  PKR1-C16 concentration above which co-treatment significantly inhibited cell viability: > 3 µM
[13]; combination with KRAS downstream signaling inhibitors
  sensitization of heterozygous KRAS mutant cancer cells: sensitized heterozygous KRAS mutant cancer cells
[14]; 5 μM
  cell proliferation: inhibited cell proliferation
[14]; 10 μM
  cell proliferation and survival: inhibited cell proliferation and survival
[14]; every second treatment
  cell proliferation and survival: inhibited cell proliferation and survival
[15]
  IC50: > 15 µM
[16]
  IC50: > 15 µM
[17]; 5 μM, single exposure
  cell proliferation: didn't impact proliferation
[17]; 10 μM
  cell proliferation and survival: inhibited cell proliferation and survival
[18]
  IC50: 10.4 µM

## COCCN(CC(=O)N[C@@H](CCSC)C(N)=O)C(=O)CN(CCCCN)C(=O)CN(CCCCN)C(=O)CN(C(=O)CN(CCCN1CCCC1=O)C(=O)[C@H](CCCCNC(=O)CN(CCCCN)C(=O)CN(C(=O)COc1ccc(Cl)cc1C)C(C)C(C)C)NC(=O)CN(CCCCN)C(=O)CN(C(=O)COc1ccc(Cl)cc1C)C(C)C(C)C)c1cncs1 (stereo partly shown) [PKR2] ({Phenoxyacetyl(4-Cl,2-Me)}-[X3][Nlys]K([Nlys-X5])[Gly(N-(CH2)3N-pyrrolidone)][X4][Nlys][Nlys][Nme]M-NH2)
[19]
  binding on bead (red color): emitted red color

— patent US20260297128A1, “PEPTOID COMPOSITIONS TARGETING RAS PROTEINS AND METHODS OF TREATMENT OF CANCER USING THE SAME” (University of Houston System, priority 2023, published 2026)
